Drawing on PMC4911930, this text covers binding for 3 substances.

The chains behind the UniProt entries cited, without tags or fusion partners.
UniProt Q5EE01: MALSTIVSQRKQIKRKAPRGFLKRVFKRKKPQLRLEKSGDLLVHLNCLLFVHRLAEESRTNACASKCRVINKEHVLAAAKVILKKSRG
UniProt A8MT69: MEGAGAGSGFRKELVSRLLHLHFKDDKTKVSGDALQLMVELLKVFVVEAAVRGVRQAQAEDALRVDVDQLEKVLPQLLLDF
UniProt P06748: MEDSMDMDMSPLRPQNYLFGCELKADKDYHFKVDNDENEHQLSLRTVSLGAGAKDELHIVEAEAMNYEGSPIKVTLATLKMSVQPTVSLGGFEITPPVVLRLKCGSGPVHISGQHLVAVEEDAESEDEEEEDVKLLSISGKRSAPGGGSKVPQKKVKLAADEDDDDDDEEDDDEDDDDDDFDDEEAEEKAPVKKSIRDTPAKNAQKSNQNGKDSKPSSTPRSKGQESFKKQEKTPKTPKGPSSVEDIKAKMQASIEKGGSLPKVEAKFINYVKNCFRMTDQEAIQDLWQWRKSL
UniProt Q9Y5B9: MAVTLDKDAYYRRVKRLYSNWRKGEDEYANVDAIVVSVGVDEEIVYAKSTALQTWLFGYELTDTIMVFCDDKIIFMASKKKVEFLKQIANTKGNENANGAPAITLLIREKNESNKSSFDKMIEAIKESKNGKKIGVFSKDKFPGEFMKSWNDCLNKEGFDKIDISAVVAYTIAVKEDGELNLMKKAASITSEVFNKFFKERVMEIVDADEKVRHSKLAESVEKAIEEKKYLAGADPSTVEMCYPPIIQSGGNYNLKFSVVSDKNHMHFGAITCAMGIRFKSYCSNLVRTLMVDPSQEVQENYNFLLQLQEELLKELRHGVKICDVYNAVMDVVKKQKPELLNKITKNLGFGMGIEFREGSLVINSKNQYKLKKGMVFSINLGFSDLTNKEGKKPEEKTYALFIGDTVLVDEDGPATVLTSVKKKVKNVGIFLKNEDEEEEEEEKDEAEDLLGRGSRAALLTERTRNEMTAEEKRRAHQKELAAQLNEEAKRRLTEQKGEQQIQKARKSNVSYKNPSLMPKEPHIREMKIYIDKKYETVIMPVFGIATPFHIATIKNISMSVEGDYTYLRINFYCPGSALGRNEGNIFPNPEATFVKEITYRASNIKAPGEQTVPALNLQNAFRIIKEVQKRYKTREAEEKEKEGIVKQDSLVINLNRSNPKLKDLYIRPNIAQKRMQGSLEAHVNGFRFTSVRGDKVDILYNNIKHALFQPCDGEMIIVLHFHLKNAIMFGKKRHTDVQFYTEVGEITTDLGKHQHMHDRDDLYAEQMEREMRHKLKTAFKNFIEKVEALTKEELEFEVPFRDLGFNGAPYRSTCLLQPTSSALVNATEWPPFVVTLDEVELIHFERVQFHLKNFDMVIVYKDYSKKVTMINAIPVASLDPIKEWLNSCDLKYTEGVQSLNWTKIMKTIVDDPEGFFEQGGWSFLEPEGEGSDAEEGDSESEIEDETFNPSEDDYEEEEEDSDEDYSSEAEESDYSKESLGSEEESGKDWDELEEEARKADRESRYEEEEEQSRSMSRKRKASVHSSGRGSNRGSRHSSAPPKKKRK

These are yes or no findings as the source states them, for the method shown. Binding seen in cells or lysates may run through a third protein. A yes stands for co-enrichment or nearness to the bait. Other partners may have been found. A no says only that the protein was not detected with the bait.

This assay has as its target CENP-W-GFP (UniProt Q5EE01). As to the kind of experiment: affinity purification with mass spectrometry; GFP-Trap pull-down of CENP-W-GFP from low-salt and high-salt extracts of HeLa cells; immunoprecipitation buffer with 300 mM NaCl; GFP alone as control; biological triplicates.

For the substance CENP-X (from UniProt A8MT69 1-81), the binding entry was “no binding”.
With NPM1 (from UniProt P06748 1-294), the binding result is reported as “binds”.
As for Spt16 (from UniProt Q9Y5B9 1-1047), the entry is “binds”.
